In paper doi:10.1101/779439:
No constants are given. Whether binding was seen depends on the method and setting. Binding calls can cover weak binding; strength is not graded here.

Biological target: T1, peptide of CD3 zeta chain containing SNID2 (residues 115-135)
T1 sequence (peptide): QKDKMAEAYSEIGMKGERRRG
Assay: ITC

Substance: SIVmac239 Nef full core domain (residues 90-263) I123L/L146F double mutant (domain or fragment)
- binding: binds weakly
